Experimental data from PMC8576330.
No constants are given. Whether binding was seen depends on the method and setting. In cells and extracts the contact can be indirect. Some binding calls cover weakened binding; strength is not graded here.

Protein sequences, listed by entry. Tags and fused reporters are not part of them.
UniProt P84022: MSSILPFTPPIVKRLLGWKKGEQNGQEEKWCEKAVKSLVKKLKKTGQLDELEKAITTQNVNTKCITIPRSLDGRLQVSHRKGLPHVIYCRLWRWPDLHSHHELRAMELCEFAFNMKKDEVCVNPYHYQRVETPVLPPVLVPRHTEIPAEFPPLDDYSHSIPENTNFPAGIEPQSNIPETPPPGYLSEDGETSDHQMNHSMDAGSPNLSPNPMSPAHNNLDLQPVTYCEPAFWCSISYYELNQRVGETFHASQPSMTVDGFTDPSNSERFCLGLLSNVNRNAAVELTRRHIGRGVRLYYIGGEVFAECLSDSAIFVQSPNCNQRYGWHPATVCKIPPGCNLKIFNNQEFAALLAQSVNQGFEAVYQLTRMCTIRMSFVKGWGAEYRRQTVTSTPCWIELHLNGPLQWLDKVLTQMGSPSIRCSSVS

Legend:
[1] = target: YAPS127A stably expressed in K-HOS cells (pQCXIH-Flag-YAP-S127A) (UniProt P46937); experiment: proximity ligation; in situ Duolink PLA on fixed osteosarcoma cells (HOS, MG63, G292; mock-, YAPS94A- and YAPS127A-stably transfected K-HOS) with antibodies against YAP and Smad3, in the presence or absence of TGF-β1 (5 ng/ml, 45 min in the methods, 1 h in the legend)
[2] = target: YAPS94A stably expressed in K-HOS cells (pQCXIH-Myc-YAP-S94A) (UniProt P46937); experiment: as above
[3] = target: YAPS94A-Flag (pCMV-Flag-YAP-S94A) (UniProt P46937); experiment: co-IP; HEK293 cells co-transfected with Flag-YAP mutants and Smad3-Myc, treated with TGF-β1 (5 ng/ml); lysate immunoprecipitated with anti-Flag antibody and Protein-A/G-agarose, Western blot with YAP and Smad3 antibodies
[4] = target: YAPS127A-Flag (pCMV-Flag-S127A-YAP) (UniProt P46937); experiment: as above

Row | binding [1] | binding [2] | binding [3] | binding [4] | Substance
1 | binds | binds |  |  | Smad3, endogenous (from UniProt P84022 1-425)
2 |  |  | binds | binds | Smad3-Myc (from UniProt P84022 1-425)
